Results taken from article PMC10079838.
No constants are given. Whether binding was seen depends on the method and setting. Binding seen in cells or lysates may run through a third protein. Some entries that bind do so weakly or less than the wild type. Blank lines part the entries; values can stand above or below the substance they belong to.

By UniProt entry, the sequences of proteins in these tests, tags left out. Residues count along the entry.
UniProt Q9HCE7: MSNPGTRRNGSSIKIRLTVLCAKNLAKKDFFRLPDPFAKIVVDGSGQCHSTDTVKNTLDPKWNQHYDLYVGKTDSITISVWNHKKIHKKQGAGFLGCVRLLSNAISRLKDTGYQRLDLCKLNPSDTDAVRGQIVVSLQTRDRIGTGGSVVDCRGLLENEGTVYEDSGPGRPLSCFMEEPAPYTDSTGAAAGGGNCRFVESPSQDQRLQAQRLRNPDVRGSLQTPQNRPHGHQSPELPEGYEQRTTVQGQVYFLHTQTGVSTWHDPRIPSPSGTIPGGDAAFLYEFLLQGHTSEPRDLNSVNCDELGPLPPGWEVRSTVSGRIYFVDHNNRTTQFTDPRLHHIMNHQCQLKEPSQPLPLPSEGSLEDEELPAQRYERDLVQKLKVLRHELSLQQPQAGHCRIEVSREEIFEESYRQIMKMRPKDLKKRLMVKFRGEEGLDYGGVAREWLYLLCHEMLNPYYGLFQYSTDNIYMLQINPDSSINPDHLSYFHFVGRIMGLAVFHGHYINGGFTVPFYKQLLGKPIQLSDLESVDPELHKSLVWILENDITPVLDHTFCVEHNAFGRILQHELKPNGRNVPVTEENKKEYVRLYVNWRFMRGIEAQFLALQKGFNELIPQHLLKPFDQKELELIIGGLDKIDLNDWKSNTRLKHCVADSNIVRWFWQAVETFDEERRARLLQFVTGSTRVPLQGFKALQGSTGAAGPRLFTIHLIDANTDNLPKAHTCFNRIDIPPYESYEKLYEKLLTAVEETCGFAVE
UniProt Q7TQI3: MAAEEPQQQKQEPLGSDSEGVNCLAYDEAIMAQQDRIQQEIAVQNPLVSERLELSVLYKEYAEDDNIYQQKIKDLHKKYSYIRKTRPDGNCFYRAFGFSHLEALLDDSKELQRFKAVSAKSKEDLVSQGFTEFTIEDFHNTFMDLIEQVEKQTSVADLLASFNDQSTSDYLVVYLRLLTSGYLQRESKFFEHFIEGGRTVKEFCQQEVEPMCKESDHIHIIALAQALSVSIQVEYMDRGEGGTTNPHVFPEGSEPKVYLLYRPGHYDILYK
UniProt Q9CUN6: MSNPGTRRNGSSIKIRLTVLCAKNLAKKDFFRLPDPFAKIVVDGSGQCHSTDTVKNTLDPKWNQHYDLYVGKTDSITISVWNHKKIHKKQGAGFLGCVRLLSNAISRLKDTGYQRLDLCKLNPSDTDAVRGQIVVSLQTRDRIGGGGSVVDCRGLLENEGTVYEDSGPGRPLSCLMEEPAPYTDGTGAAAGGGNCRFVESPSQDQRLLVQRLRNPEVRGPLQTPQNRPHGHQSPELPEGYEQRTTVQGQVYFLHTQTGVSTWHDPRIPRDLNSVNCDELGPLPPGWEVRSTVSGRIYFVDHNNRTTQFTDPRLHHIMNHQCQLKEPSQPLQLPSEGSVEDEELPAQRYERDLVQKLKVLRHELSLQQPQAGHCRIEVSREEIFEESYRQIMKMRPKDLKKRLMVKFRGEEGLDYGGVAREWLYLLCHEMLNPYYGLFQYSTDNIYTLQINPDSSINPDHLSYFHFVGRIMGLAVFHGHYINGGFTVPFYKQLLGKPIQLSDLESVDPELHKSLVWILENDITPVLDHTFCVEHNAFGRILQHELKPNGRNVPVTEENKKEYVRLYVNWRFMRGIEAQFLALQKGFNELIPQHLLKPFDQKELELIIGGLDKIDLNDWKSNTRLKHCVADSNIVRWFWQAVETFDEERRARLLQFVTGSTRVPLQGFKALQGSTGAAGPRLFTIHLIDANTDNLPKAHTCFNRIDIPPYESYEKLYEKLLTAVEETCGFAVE
UniProt P21802, residues 22-821: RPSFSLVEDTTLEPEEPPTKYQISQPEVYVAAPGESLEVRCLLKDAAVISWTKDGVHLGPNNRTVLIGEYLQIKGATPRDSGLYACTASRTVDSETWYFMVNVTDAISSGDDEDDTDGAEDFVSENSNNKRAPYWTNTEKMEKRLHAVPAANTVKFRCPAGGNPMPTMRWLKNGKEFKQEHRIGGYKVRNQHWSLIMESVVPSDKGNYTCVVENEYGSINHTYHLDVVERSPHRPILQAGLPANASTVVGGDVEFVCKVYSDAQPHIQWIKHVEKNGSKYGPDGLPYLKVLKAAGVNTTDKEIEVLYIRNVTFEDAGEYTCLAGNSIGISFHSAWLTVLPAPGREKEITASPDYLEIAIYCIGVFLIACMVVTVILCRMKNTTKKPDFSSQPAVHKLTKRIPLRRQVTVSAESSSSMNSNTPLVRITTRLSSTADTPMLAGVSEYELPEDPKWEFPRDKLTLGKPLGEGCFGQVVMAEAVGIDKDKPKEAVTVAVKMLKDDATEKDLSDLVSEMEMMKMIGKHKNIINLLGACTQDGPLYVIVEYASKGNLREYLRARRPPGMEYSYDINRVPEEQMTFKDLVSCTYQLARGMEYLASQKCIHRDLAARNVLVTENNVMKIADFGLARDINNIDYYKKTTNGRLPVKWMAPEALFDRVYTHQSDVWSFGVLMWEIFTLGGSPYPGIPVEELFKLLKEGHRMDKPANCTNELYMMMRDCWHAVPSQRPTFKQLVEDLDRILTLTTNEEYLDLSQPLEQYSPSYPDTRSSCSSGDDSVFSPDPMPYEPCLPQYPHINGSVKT
UniProt P21803, residues 22-821: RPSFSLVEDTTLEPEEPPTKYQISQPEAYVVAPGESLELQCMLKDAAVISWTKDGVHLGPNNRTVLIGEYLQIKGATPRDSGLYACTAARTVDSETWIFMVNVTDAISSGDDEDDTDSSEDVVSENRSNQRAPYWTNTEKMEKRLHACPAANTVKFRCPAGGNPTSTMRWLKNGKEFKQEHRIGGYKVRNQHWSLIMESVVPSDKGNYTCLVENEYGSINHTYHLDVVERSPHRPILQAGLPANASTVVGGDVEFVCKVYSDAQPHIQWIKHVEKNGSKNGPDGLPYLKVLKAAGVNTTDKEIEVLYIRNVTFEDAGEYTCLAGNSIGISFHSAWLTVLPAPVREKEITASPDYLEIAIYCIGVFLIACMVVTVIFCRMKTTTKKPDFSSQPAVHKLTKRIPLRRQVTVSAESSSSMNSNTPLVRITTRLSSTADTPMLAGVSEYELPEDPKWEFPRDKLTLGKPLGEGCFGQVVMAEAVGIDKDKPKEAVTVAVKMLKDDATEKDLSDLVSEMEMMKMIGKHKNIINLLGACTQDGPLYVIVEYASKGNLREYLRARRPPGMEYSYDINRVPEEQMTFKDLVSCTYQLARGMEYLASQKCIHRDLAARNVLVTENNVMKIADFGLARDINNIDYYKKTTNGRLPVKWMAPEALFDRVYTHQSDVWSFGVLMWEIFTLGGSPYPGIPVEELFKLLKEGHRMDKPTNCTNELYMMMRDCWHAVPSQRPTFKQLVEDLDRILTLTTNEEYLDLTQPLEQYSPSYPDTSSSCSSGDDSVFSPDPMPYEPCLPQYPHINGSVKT

What was measured:
[1] = target: SMURF1 (endogenous, HEK293T) (human (endogenous in HEK293T)) (UniProt Q9HCE7); assay: co-IP; endogenous proteins in osteoblast (OB) and HEK293T cells; immunoblot
[2] = target: GST-OTUB1 (UniProt Q7TQI3); assay: pull-down; GST-OTUB1 on glutathione Sepharose 4B beads incubated in bone lysates at 4 °C overnight; washed four times with GST binding buffer (100 mM NaCl, 10 mM Tris, 50 mM NaF, 2 mM EDTA, 0.5 mM Na3VO4, 1% NP-40); western blot; only the target purified
[3] = target: SMURF1 (endogenous, mouse osteoblasts) (mouse (endogenous in osteoblasts)) (UniProt Q9CUN6); assay: co-IP; endogenous proteins in osteoblast (OB) and HEK293T cells; immunoblot
[4] = target: Flag-Smurf1 (UniProt Q9CUN6); assay: co-IP; HEK293T cells with or without GFP-Otub1; immunoblot
[5] = target: Flag-Smurf1 (UniProt Q9CUN6); assay: co-IP; HEK293T cells transfected with tagged constructs, lysed after 48 h in HEPES lysis buffer (20 mM HEPES pH 7.2, 50 mM NaCl, 0.5% Triton X-100, 1 mM NaF, 1 mM dithiothreitol); primary antibody and protein A/G agarose beads at 4 °C overnight; western blot
[6] = target: Flag-Otub1-FL (UniProt Q7TQI3); assay: as above

binding [1]: binds
Substance: FGFR2 (endogenous, HEK293T) (from UniProt P21802 22-821) (receptor)

binding [2]: binds
binding [3]: binds
Substance: FGFR2 (endogenous, mouse) (from UniProt P21803 22-821) (receptor)

binding [4]: binds
binding [5]: binds
binding [6]: binds
Substance: Myc-Fgfr2 (from UniProt P21803 22-821) (receptor)
